{"source": "paper PMC7819943", "about": "“Rice protein-binding microarrays: a tool to detect cis-acting elements near promoter regions in rice”", "note": "The list shows a part of the results.", "data": [{"biological_target": "T1, OsSMF1 (Oryza sativa, UniProt Q6ZLB0 1-436)", "T1 sequence": "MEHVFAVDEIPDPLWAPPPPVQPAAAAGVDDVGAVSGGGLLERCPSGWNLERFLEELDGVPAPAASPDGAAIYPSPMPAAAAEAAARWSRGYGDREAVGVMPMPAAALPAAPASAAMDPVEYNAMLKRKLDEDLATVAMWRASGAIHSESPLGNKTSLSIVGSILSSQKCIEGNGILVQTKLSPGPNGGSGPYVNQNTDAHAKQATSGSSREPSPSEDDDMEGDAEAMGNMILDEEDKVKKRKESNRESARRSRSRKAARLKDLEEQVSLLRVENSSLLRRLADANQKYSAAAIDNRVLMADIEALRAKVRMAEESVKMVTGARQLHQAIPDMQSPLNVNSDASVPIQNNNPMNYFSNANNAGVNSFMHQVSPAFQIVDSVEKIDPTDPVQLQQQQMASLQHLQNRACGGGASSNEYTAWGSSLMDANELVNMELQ", "experiment": "protein-binding microarray (RPBM); PBS, 2% BSA, 51.3 ng/ul salmon testes DNA, 50 uM zinc acetate, 200 nM TF, 25 C, 1 h; high values mean tight binding", "details": "protein: recombinant; tags: N-terminal polyhistidine and DsRed monomer fusion (pET32a); chain copies: 2; label: CyDye5-dUTP incorporated in the synthesized complementary strand; 3' TTTTT single-stranded linker to array surface; dsDNA, one strand shown", "method_in_brief": "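For the binding signal, per-feature fluorescence intensity was read in arbitrary units on an Axon 4000B scanner. Before scanning, a 2% BSA-blocked custom Agilent array made double-stranded with Cy5-dUTP was washed after 1 h at 25 °C with 200 nM protein and 50 µM zinc acetate. The proteins were Ni–NTA-purified transcription factors with N-terminal polyhistidine and DsRed fusions, expressed in E. coli BL21-CodonPlus.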", "values": [{"sequence": "AATCGATTCGAAATTTCAATGAAAATTTTCCCTCCACACCCGGAGTCACCTAGTGCAG", "binding signal": "30600 fluorescence intensity (a.u.)"}, {"sequence": "CAAAGCAATGCCAGTAACAAAATTAAGTACCTGGGAGCTCCGGAGTCACCTAGTGCAG", "binding signal": "27500 fluorescence intensity (a.u.)"}, {"sequence": "GCCGCCGCCGTGGCCGTCGTCGTCGGCGCCATTGCCGTCGCGGAGTCACCTAGTGCAG", "binding signal": "3800 fluorescence intensity (a.u.)"}, {"sequence": "CTCTGCCTCCTCTCTCCAGTGACACATATATATAGTAGCTCGGAGTCACCTAGTGCAG", "binding signal": "5240 fluorescence intensity (a.u.)"}, {"sequence": "AGCGATCCAATGAGACCCACTCCGTTTTGCCGTTGGGCTACGGAGTCACCTAGTGCAG", "binding signal": "3150 fluorescence intensity (a.u.)"}, {"sequence": "GCCGATGCTTCAGCACGTGGGCTGGCAAAGCCCAGTGTGTCGGAGTCACCTAGTGCAG", "binding signal": "3840 fluorescence intensity (a.u.)"}, {"sequence": "GGATCTTGCTTTCCATGAGGCAGGATTTTCTTTGGTCATTCGGAGTCACCTAGTGCAG", "binding signal": "26400 fluorescence intensity (a.u.)"}, {"sequence": "GGCATGTGGTTGGCTTCTGGAACCGTACGTGTTGCGTTTTCGGAGTCACCTAGTGCAG", "binding signal": "3320 fluorescence intensity (a.u.)"}, {"sequence": "CGCTGAGGTAGCTGCCACGTCAGCTGGGGATCGGCCCGGCCGGAGTCACCTAGTGCAG", "binding signal": "34400 fluorescence intensity (a.u.)"}, {"sequence": "ACGGCTGGGGCCACACTCCGGTACACGTACACGACGAGACCGGAGTCACCTAGTGCAG", "binding signal": "3560 fluorescence intensity (a.u.)"}, {"sequence": "TACTGCCCTAGAGCCGCCTCACGTGGACTTATATGCGGTTCGGAGTCACCTAGTGCAG", "binding signal": "4460 fluorescence intensity (a.u.)"}, {"sequence": "CTCACCTACCGCATCTGTGTTCCTTTTGCTTTCTTTCTTTCGGAGTCACCTAGTGCAG", "binding signal": "3140 fluorescence intensity (a.u.)"}, {"sequence": "TGCAGTATCTGCCGTTCGTATCGCTGCGTTGAATCTTCCACGGAGTCACCTAGTGCAG", "binding signal": "47100 fluorescence intensity (a.u.)"}, {"sequence": "GTTCGGCCGAACCCGGGGTGGCTCTGTTCGCTCCAGTTTTCGGAGTCACCTAGTGCAG", "binding signal": "3470 fluorescence intensity (a.u.)"}, {"sequence": "AAGCTTGTGATGTGAAACGTACGCGTGTCTGCATTGGCCTCGGAGTCACCTAGTGCAG", "binding signal": "6570 fluorescence intensity (a.u.)"}, {"sequence": "CCTTCTCGGGCTTTGTTGTACGTATGCGTCTCGTGTTGGGCGGAGTCACCTAGTGCAG", "binding signal": "3460 fluorescence intensity (a.u.)"}, {"sequence": "GACATCCGCCACGGTGCCGTGTCATCGGCGCGGGTGACCACGGAGTCACCTAGTGCAG", "binding signal": "6240 fluorescence intensity (a.u.)"}, {"sequence": "TCCCTCTCCCAAAGTCAAACCCAAAATACAACACAATTGTCGGAGTCACCTAGTGCAG", "binding signal": "3510 fluorescence intensity (a.u.)"}, {"sequence": "CTAAACTAATCAGGCGCCACGTCGGATGTGCTTACCACGTCGGAGTCACCTAGTGCAG", "binding signal": "28100 fluorescence intensity (a.u.)"}, {"sequence": "GTGAAATTATCGCCCAAAACGCAATGCCTCGTCCAGCCAGCGGAGTCACCTAGTGCAG", "binding signal": "3240 fluorescence intensity (a.u.)"}, {"sequence": "CCGGGCGAGCTCGAGCTCGAACACGTACGTTGGATGACCTCGGAGTCACCTAGTGCAG", "binding signal": "3820 fluorescence intensity (a.u.)"}, {"sequence": "ATTTTAAAATTTATAATTACAATGTGAGTGTAAGCAAGTGCGGAGTCACCTAGTGCAG", "binding signal": "3220 fluorescence intensity (a.u.)"}, {"sequence": "GATATATAGGGTGATTAGTTTGAATCATGACAAATTTGCTCGGAGTCACCTAGTGCAG", "binding signal": "4260 fluorescence intensity (a.u.)"}, {"sequence": "GTGCATCTGGGCCACGTGGCGCTTCGTTTCTTTCCTCCCCCGGAGTCACCTAGTGCAG", "binding signal": "35900 fluorescence intensity (a.u.)"}, {"sequence": "CTCTGCCCCACGTTGGCTCGCGTCCGCGGCCCATCTCCACCGGAGTCACCTAGTGCAG", "binding signal": "4370 fluorescence intensity (a.u.)"}, {"sequence": "AATGTGATGACTGGACTGCCATGTCAGCCAATATCACCTTCGGAGTCACCTAGTGCAG", "binding signal": "15900 fluorescence intensity (a.u.)"}, {"sequence": "GCAGAGCAAGGAGTAGTAGGTAGGACAAGTGGTGACGGGGCGGAGTCACCTAGTGCAG", "binding signal": "3170 fluorescence intensity (a.u.)"}, {"sequence": "GCTCGCGAGTCGCGATTCGTACGTGGAGACGACGAGTCGTCGGAGTCACCTAGTGCAG", "binding signal": "3310 fluorescence intensity (a.u.)"}, {"sequence": "TTTTGTTGTACTTTTCTTTGCAGATGTTAATGTCAGGTCACGGAGTCACCTAGTGCAG", "binding signal": "3470 fluorescence intensity (a.u.)"}, {"sequence": "AATTGCTATGGTTACACCCGGCCGAAGCAAAGTCACCACTCGGAGTCACCTAGTGCAG", "binding signal": "3520 fluorescence intensity (a.u.)"}, {"sequence": "CGTCCCATTTTAAATGCGGTTATAGATTTTCGTCTCCAACCGGAGTCACCTAGTGCAG", "binding signal": "3530 fluorescence intensity (a.u.)"}, {"sequence": "GGCAGCTTAAGAAGGTTGTACACGTGGGCAACCGCCCATCCGGAGTCACCTAGTGCAG", "binding signal": "4360 fluorescence intensity (a.u.)"}, {"sequence": "TGCATTCTGCCGATCTGCAAGGGACTATCTATCCTACTGGCGGAGTCACCTAGTGCAG", "binding signal": "28600 fluorescence intensity (a.u.)"}, {"sequence": "CACTAAGTACTCAACTCTTCTTCAACGTGTCATTGCTCACCGGAGTCACCTAGTGCAG", "binding signal": "6650 fluorescence intensity (a.u.)"}, {"sequence": "GCATCCACAGCATCGAGGTGACGCTACTCATCGTCAACCACGGAGTCACCTAGTGCAG", "binding signal": "4900 fluorescence intensity (a.u.)"}, {"sequence": "CTTATTTACCTTAACTTAGGTTGCAGCTCAGAACAACCCGCGGAGTCACCTAGTGCAG", "binding signal": "16000 fluorescence intensity (a.u.)"}, {"sequence": "TCCTCGCTTTAGCTTCAAATTCCGTGTGTCATAGATGTTGCGGAGTCACCTAGTGCAG", "binding signal": "3730 fluorescence intensity (a.u.)"}, {"sequence": "GATCTCGCTTCTGCCCCGTGGCCACATGCGAACATAACCACGGAGTCACCTAGTGCAG", "binding signal": "3870 fluorescence intensity (a.u.)"}, {"sequence": "GTCAACCACAATCAATATGCCACATCAGCACAGACCACCTCGGAGTCACCTAGTGCAG", "binding signal": "12800 fluorescence intensity (a.u.)"}, {"sequence": "CCTCCACGTGTCCCCACGCAGCCCTCGCCCTCCCATTTCTCGGAGTCACCTAGTGCAG", "binding signal": "13100 fluorescence intensity (a.u.)"}, {"sequence": "GTGGTGTGCTTGCTAATTTAGCAGATTAAACCGGTTTTATCGGAGTCACCTAGTGCAG", "binding signal": "5760 fluorescence intensity (a.u.)"}, {"sequence": "TCTATGTCTTGCTTAGTCACTACTCCGTGGATGAGACTCCCGGAGTCACCTAGTGCAG", "binding signal": "8830 fluorescence intensity (a.u.)"}]}]}
